Data: patent EP0603240B1, “SAFENING HERBICIDAL PYRAZOLYLSULFONYLUREAS” (priority 1991, dated 1993)
The name of at least one read-out is uncertain.

Assays:
Format in all cases: in vivo
[1] = test system: corn; assay: Example 1, greenhouse Procedure II: antidotes against Herbicide No. 1
Protocol: (§1) Containers were filled and compacted with a fumigated silt loam top soil to a depth of about 1.3 cm from the top of the container. A first container was designated as an untreated control, a second container was designated as a herbicide control, and a third container was designated as a herbicide + antidote test container. Each of the containers was seeded with a crop species. A measured amount of herbicide dispersed or dissolved in acetone was applied to a measured quantity of soil. To this same quantity of soil treated with herbicide, there was added a measured amount of antidote dispersed or dissolved in acetone. The quantity of soil treated with the herbicide and antidote was thoroughly mixed to incorporate the herbicide and antidote in the soil uniformly. The seed bed in the third container of soil was covered with the soil treated with the herbicide and antidote and the container was leveled. For each test series, the seed beds of the first and second containers were likewise covered by soil layers. the cover layer of the first container was not treated with herbicide or antidote.
(§2) The containers were then placed on a bench in a greenhouse and sub-irrigated as required for the duration of the test. […] Plant response is measured in terms of percent injury. Antidote efficacy is indicated as the difference in plant injury by the herbicide(s) without the antidote and with the antidote.
(§3) This procedure is the same as Procedure I, but modified in the manner that after incorporation of the chemicals (herbicide and antidote) the containers with the covered seedbed were treated with an initial overhead irrigation equivalent to 0.6 cm rainfall, then subsequently sub-irrigated as required on greenhouse benches.
In the series of greenhouse tests described below, for routine screening purposes the herbicide/antidote compositions were tested in crop/weed combinations involving corn as the crop and either or both of the weeds barnyardgrass (Echinochloa crusgalli), a monocotyledonous weed, and velvetleaf (Abutilon theophrasti), a dicotyledonous weed. In the tables below, these weeds are indicated by the symbols "BYG" and "VL", respectively.
This example was designed to investigate the antidotal efficacy of a plurality of antidotes against Herbicide No. 1 in corn in the presence of barnyard grass and velvetleaf. The antidotes used in this example were Antidote Nos. 1-10, 12, 13 and 15.
The test in this example was conducted as described above for Procedure II. The antidotes were applied to the soil cover layer by pipet after spraying on the herbicide followed by incorporation and simulated rain.

[2] = test system: barnyardgrass (Echinochloa crusgalli); assay: as above
[3] = test system: velvetleaf (Abutilon theophrasti); assay: as above
[4] = test system: corn; assay: Example 2, Procedure II: dichloroacetamide antidotes against Herbicide No. 1; conditions: no antidote
Protocol: as §1, §2, §3
In this example, a plurality of dichloroacetamide antidotes were tested for their safening efficacy against Herbicide No. 1 in corn, using Procedure II. In this test the weed was velvetleaf; barnyardgrass was not present in this test.

[5] = test system: velvetleaf (Abutilon theophrasti); assay: as above; conditions: no antidote
[6] = test system: barnyardgrass (Echinochloa crusgalli); assay: Example 12, Procedure II: Herbicide No. 1 + acetochlor (No. 6) with thirteen antidotes
[7] = test system: velvetleaf (Abutilon theophrasti); assay: as above
[8] = test system: velvetleaf (Abutilon theophrasti); assay: Example 13, Procedure II: Herbicide No. 1 + acetochlor (No. 6) with dichloroacetamide antidotes; conditions: no antidote
[9] = test system: barnyardgrass (Echinochloa crusgalli); assay: Example 15, Procedure II: Herbicide No. 1 + butylate (No. 10) with antidotes
[10] = test system: velvetleaf (Abutilon theophrasti); assay: as above
[11] = test system: corn; assay: Example 16, Procedure II: Herbicide No. 1 + EPTC (No. 4, EPTAM) with antidotes
Protocol: as §1, §2, §3
(§4) The test procedure used in these experiments was that of Procedure II described above. The antidotes were applied to a soil cover layer by pipet after spraying the herbicides onto the soil, followed by incorporation and overhead irrigation.
In this example, the same antidotes and procedure as described in the preceding example were used, except that the co-herbicide in the experiments of this example was EPTC, active ingredient in the commercial herbicide EPTAM®; EPTC is identified as Herbicide No. 4.

[12] = test system: barnyardgrass (Echinochloa crusgalli); assay: as above
[13] = test system: velvetleaf (Abutilon theophrasti); assay: as above
[14] = test system: corn; assay: Example 17, Procedure II: Herbicide No. 1 + vernolate (No. 11) with antidotes
Protocol: as §1, §2, §3, §4
In this example, the co-herbicidal compound tested in the composition with Herbicide No. 1 was vernolate (Herbicide No. 11); this compound is the active ingredient in VERNAM® herbicide. The antidotes and procedure used in these experiments were the same as in Examples 15 and 16.

[15] = test system: barnyardgrass (Echinochloa crusgalli); assay: as above
[16] = test system: velvetleaf (Abutilon theophrasti); assay: as above
[17] = Herb. No. 1 0.14 kg/ha + antidote 8.96 kg/ha
[18] = Herb. No. 1 0.56 kg/ha, no antidote
[19] = Herb. No. 1 0.14 kg/ha, no antidote
[20] = Herbicide No.1 0.14 kg/ha alone, no antidote
[21] = Herbicide No.1 0.56 kg/ha alone, no antidote
[22] = Herbicide No.1 0.56 kg/ha alone
[23] = Herbicide No.1 1.12 kg/ha alone, no antidote
[24] = Herbicide No.6 2.24 kg/ha alone, no antidote
[25] = Herbicide No.1 0.56 kg/ha + EPTAM 6.72 kg/ha, no antidote
[26] = Herbicide No.1 1.12 kg/ha + EPTAM 6.72 kg/ha, no antidote
[27] = Herbicide No.1 1.12 kg/ha alone
[28] = Herbicide No.1 0.56 kg/ha + VERNAM 6.72 kg/ha, no antidote
[29] = Herbicide No.1 1.12 kg/ha + VERNAM 6.72 kg/ha, no antidote
[30] = Herb. No. 1 0.14 kg/ha + antidote 2.24 kg/ha
[31] = Herb. No. 1 0.56 kg/ha + antidote 2.24 kg/ha
[32] = Herb. No. 1 0.56 kg/ha + antidote 8.96 kg/ha
[33] = Herbicide No.1 0.14 kg/ha + Herbicide No.6 2.24 kg/ha, antidote rate 2.24 kg/ha
[34] = Herbicide No.1 0.14 kg/ha + Herbicide No.6 2.24 kg/ha, antidote rate 8.96 kg/ha
[35] = Herbicide No.1 0.56 kg/ha + Herbicide No.6 2.24 kg/ha, antidote rate 2.24 kg/ha
[36] = Herbicide No.1 0.56 kg/ha + Herbicide No.6 2.24 kg/ha, antidote rate 8.96 kg/ha
[37] = Herbicide No.1 0.56 kg/ha + Herbicide No.10 6.72 kg/ha, antidote rate 2.24 kg/ha
[38] = Herbicide No.1 0.56 kg/ha + Herbicide No.10 6.72 kg/ha, antidote rate 8.96 kg/ha
[39] = Herbicide No.1 1.12 kg/ha + Herbicide No.10 6.72 kg/ha, antidote rate 2.24 kg/ha
[40] = Herbicide No.1 1.12 kg/ha + Herbicide No.10 6.72 kg/ha, antidote rate 8.96 kg/ha
[41] = Herbicide No.1 0.56 kg/ha + EPTAM 6.72 kg/ha, antidote 2.24 kg/ha
[42] = Herbicide No.1 0.56 kg/ha + EPTAM 6.72 kg/ha, antidote 8.96 kg/ha
[43] = Herbicide No.1 1.12 kg/ha + EPTAM 6.72 kg/ha, antidote 2.24 kg/ha
[44] = Herbicide No.1 1.12 kg/ha + EPTAM 6.72 kg/ha, antidote 8.96 kg/ha
[45] = Herbicide No.1 0.56 kg/ha + VERNAM 6.72 kg/ha, antidote 2.24 kg/ha
[46] = Herbicide No.1 0.56 kg/ha + VERNAM 6.72 kg/ha, antidote 8.96 kg/ha
[47] = Herbicide No.1 1.12 kg/ha + VERNAM 6.72 kg/ha, antidote 2.24 kg/ha
[48] = Herbicide No.1 1.12 kg/ha + VERNAM 6.72 kg/ha, antidote 8.96 kg/ha

## C=CCN(CC=C)C(=O)C(Cl)Cl [Antidote No. 1, Acetamide, N,N-bis(2-propenyl)-α,α-dichloro]
[1]; [17]
  % Injury Corn: 20%

## COC(=O)c1c(Cl)nn(C)c1S(=O)(=O)NC(=O)Nc1nc(OC)cc(OC)n1 [Herbicide No. 1]
[1]; [18]
  % Injury Corn: 40%
[2]; [19]
  % Injury BYG: 50%
[2]; [18]
  % Injury BYG: 75%
[3]; [19]
  % Injury VL: 85%
[3]; [18]
  % Injury VL: 95%
[4]; Herb. No. 1 0.56 kg/ha
  % Injury Corn: 55%
[4]; Herb. No. 1 2.24 kg/ha
  % Injury Corn: 80%
[5]; Herb. No. 1 0.14 kg/ha
  % Injury VL: 95%
[5]; Herb. No. 1 0.56 kg/ha
  % Injury VL: 85%
[5]; Herb. No. 1 2.24 kg/ha
  % Injury VL: 95%
[6]; [20]
  % Injury BYG: 55%
[6]; [21]
  % Injury BYG: 75%
[7]; [20]
  % Injury VL: 50%
[7]; [21]
  % Injury VL: 85%
[8]; Herbicide No.1 0.14 kg/ha alone
  % Injury VL: 95%
[8]; [22]
  % Injury VL: 85%
[8]; Herbicide No.1 2.24 kg/ha alone
  % Injury VL: 95%
[9]; [21]
  % Injury BYG: 35%
[9]; [23]
  % Injury BYG: 55%
[10]; [21]
  % Injury VL: 50%
[10]; [23]
  % Injury VL: 70%

## CCOCN(C(=O)CCl)c1c(C)cccc1CC [Herbicide No.6]
[6]; [24]
  % Injury BYG: 100%
[7]; [24]
  % Injury VL: 10%
[8]; Herbicide No.6 4.48 kg/ha alone
  % Injury VL: 10%

## COC(=O)c1c(Cl)nn(C)c1S(=O)(=O)NC(=O)Nc1nc(OC)cc(OC)n1 [No.1]
[11]; [25]
  % Injury Corn: 25%
[11]; [26]
  % Injury Corn: 25%
[12]; [25]
  % Injury BYG: 93%
[12]; [22]
  % Injury BYG: 70%
[12]; [26]
  % Injury BYG: 90%
[12]; [27]
  % Injury BYG: 55%
[13]; [25]
  % Injury VL: 80%
[13]; [22]
  % Injury VL: 60%
[13]; [26]
  % Injury VL: 85%
[13]; [27]
  % Injury VL: 40%
[14]; [28]
  % Injury Corn: 75%
[14]; [22]
  % Injury Corn: 0%
[14]; [29]
  % Injury Corn: 70%
[14]; [27]
  % Injury Corn: 5%
[15]; [28]
  % Injury BYG: 99%
[15]; [22]
  % Injury BYG: 25%
[15]; [29]
  % Injury BYG: 99%
[15]; [27]
  % Injury BYG: 45%
[16]; [28]
  % Injury VL: 85%
[16]; [22]
  % Injury VL: 10%
[16]; [29]
  % Injury VL: 85%
[16]; [27]
  % Injury VL: 65%

## CC1(C(Cl)Cl)OCCO1 [compound 13]
[1]; [30]
  % Injury Corn: 15%
[1]; [17]
  % Injury Corn: 5%
[1]; [31]
  % Injury Corn: 25%
[1]; [32]
  % Injury Corn: 20%
[2]; [30]
  % Injury BYG: 25%
[2]; [17]
  % Injury BYG: 35%
[2]; [31]
  % Injury BYG: 60%
[2]; [32]
  % Injury BYG: 85%
[3]; [30]
  % Injury VL: 55%
[3]; [17]
  % Injury VL: 75%
[3]; [31]
  % Injury VL: 65%
[3]; [32]
  % Injury VL: 95%
[6]; [33]
  % Injury BYG: 100%
[6]; [34]
  % Injury BYG: 100%
[6]; [35]
  % Injury BYG: 100%
[6]; [36]
  % Injury BYG: 100%
[7]; [33]
  % Injury VL: 80%
[7]; [34]
  % Injury VL: 85%
[7]; [35]
  % Injury VL: 95%
[7]; [36]
  % Injury VL: 90%
[9]; [37]
  % Injury BYG: 97%
[9]; [38]
  % Injury BYG: 95%
[9]; [39]
  % Injury BYG: 97%
[9]; [40]
  % Injury BYG: 95%
[10]; [37]
  % Injury VL: 85%
[10]; [38]
  % Injury VL: 70%
[10]; [39]
  % Injury VL: 90%
[10]; [40]
  % Injury VL: 85%
[11]; [41]
  % Injury Corn: 10%
[11]; [42]
  % Injury Corn: 0%
[11]; [43]
  % Injury Corn: 15%
[11]; [44]
  % Injury Corn: 10%
[12]; [41]
  % Injury BYG: 85%
[12]; [42]
  % Injury BYG: 80%
[12]; [43]
  % Injury BYG: 85%
[12]; [44]
  % Injury BYG: 75%
[13]; [41]
  % Injury VL: 85%
[13]; [42]
  % Injury VL: 75%
[13]; [43]
  % Injury VL: 85%
[13]; [44]
  % Injury VL: 80%
[14]; [45]
  % Injury Corn: 15%
[14]; [46]
  % Injury Corn: 25%
[14]; [47]
  % Injury Corn: 15%
[14]; [48]
  % Injury Corn: 10%
[15]; [45]
  % Injury BYG: 99%
[15]; [46]
  % Injury BYG: 99%
[15]; [47]
  % Injury BYG: 99%
[15]; [48]
  % Injury BYG: 99%
[16]; [45]
  % Injury VL: 85%
[16]; [46]
  % Injury VL: 85%
[16]; [47]
  % Injury VL: 85%
[16]; [48]
  % Injury VL: 85%
